In the test the test system is nuclear p27 in LNCaP-S14 cells. The class given is cell-based, human.

SMILES strings stand for the structures.

For the compound `Cc1cc(C=Cc2ccc3cc(N(C)C)ccc3[n+]2C)c(C)n1-c1ccccc1.O=C([O-])c1cc2ccccc2c(Cc2c(O)c(C(=O)O)cc3ccccc23)c1O` [501K03], the Clasf result is recorded as “S (key: S: strong (Z score > 5); M: medium (Z score 3-5); W: weak (Z score 2-3)” and the “Z score (aver)” value is on record as 14.00.

Values taken from article PMC3025922 (BMC Biology, 2010).
